Binding data for four molecules are collected here from paper PMC4499774.

Protein sequences, listed by entry. Tags and fused reporters are not part of them. Lines headed by an entry give the natural chain unless they say otherwise; changes in a name come on top.
UniProt O85040: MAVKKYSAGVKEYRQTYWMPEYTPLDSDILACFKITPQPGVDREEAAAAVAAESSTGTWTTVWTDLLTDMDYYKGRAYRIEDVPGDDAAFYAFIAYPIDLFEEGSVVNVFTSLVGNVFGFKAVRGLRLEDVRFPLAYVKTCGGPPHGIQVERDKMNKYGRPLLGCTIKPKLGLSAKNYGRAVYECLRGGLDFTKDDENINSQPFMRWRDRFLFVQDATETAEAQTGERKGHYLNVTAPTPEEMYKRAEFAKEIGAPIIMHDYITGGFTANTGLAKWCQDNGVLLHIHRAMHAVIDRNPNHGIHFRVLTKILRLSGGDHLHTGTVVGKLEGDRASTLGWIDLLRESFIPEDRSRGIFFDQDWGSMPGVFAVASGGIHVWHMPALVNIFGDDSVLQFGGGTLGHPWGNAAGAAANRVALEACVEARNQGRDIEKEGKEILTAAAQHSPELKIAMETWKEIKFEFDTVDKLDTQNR

No constants are given. Whether binding was seen depends on the method and setting. For some of these results: Binding seen in cells or lysates may run through a third protein. Some entries that bind do so weakly or less than the wild type. For some of these results: Sequences can lack the tags named with a protein.

In assay [1] the target is T1, Hnea CsoS1C (yeast two-hybrid fusion) (Halothiobacillus neapolitanus) (UniProt P45688).
T1 sequence: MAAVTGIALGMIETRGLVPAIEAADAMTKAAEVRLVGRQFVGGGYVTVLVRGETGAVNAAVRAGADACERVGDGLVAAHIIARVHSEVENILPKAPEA
Briefly: two-hybrid; Matchmaker GAL4 Two-Hybrid System 3, S. cerevisiae AH109; baits in pGBKT7, preys in pGADT7; MEL1 reporter (X-α-Gal) and growth without histidine with 10 mM 3-AT.

Assay [2] has as its target Hnea CsoS2 (yeast two-hybrid fusion) (Halothiobacillus neapolitanus) (UniProt O85041). The description is as above.
The target in assay [3] is T2, Hnea CsoS4B (yeast two-hybrid fusion) (Halothiobacillus neapolitanus) (UniProt O85044).
T2 sequence: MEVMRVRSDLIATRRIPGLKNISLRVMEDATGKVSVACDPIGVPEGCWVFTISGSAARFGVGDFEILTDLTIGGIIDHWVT
The description is as above.

In assay [4] the target is T3, Hnea RuBisCO small subunit CbbS (yeast two-hybrid fusion) (Halothiobacillus neapolitanus) (UniProt P45686).
T3 sequence: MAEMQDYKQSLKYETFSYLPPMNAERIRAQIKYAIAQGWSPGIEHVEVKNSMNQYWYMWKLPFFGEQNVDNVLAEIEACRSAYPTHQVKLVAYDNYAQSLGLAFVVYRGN
Described as above.

The target in assay [5] is SPA-tagged Hnea CsoS2B (full length CsoS2 with C-terminal SPA tag, in HnSPAS2 mutant carboxysomes) (Halothiobacillus neapolitanus) (UniProt O85041). Briefly: co-IP; purified HnSPAS2 mutant carboxysomes bound to agarose beads conjugated with α-FLAG antibodies, eluted with 100 mM glycine buffer, pH 2.5; eluate analysed by SDS-PAGE and densitometry; the trapped carboxysomes were taken to be intact.

Assay [6] addresses T4, SPA-tagged Hnea CsoS2B (full length CsoS2 with C-terminal SPA tag, in HnSPAS2 mutant carboxysomes) (Halothiobacillus neapolitanus), O85041.
T4 chain: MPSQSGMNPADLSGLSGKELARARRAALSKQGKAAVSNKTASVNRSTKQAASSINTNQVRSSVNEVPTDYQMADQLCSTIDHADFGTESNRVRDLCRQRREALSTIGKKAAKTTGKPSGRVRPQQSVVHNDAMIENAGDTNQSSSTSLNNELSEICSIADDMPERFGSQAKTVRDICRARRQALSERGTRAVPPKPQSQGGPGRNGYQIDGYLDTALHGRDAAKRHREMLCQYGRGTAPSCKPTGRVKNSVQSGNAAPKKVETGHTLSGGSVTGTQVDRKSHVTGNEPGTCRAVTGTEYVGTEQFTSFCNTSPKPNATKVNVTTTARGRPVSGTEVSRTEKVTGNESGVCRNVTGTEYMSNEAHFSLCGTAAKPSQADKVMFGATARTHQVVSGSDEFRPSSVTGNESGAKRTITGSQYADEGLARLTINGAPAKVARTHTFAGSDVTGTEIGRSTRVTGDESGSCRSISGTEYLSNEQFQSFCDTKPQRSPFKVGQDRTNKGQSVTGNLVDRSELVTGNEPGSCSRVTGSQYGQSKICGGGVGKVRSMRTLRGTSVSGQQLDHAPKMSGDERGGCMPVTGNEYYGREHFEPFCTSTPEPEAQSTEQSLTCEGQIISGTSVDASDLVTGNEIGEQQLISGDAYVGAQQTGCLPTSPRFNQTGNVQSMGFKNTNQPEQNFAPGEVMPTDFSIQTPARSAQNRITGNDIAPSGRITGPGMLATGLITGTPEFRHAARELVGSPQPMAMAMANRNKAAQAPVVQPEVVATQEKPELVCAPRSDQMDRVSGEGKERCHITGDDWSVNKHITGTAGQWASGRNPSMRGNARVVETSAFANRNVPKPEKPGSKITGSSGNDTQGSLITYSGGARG
Described as above. The following applies: remark: other sources report otherwise.

Take “Hnea CsoS2 (yeast two-hybrid fusion) (from UniProt O85041 1-869)”: the binding entry in assay [1], in assay [2], in assay [3] and in assay [4] was “binds” each time.
Regarding “Hnea RuBisCO (L8S8 holoenzyme) (from UniProt O85040 1-473; P45686 1-110) (complex)”, the binding result in assay [5] is “binds”.

B1: Hnea CsoSCA (carboxysomal carbonic anhydrase, product of csoS3), O85042 1-514 (enzyme)
chain: MNTRNTRSKQRAPFGVSSSVKPRLDLIEQAPNPAYDRHPACITLPERTCRHPLTDLEANEQLGRCEDSVKNRFDRVIPFLQVVAGIPLGLDYVTRVQELAQSSLGHTLPEELLKDNWISGHNLKGIFGYATAKALTAATEQFSRKIMSEKDDSASAIGFFLDCGFHAVDISPCADGRLKGLLPYILRLPLTAFTYRKAYAGSMFDIEDDLAQWEKNELRRYREGVPNTADQPTRYLKIAVYHFSTSDPTHSGCAAHGSNDRAALEAALTQLMKFREAVENAHCCGASIDILLIGVDTDTDAIRVHIPDSKGFLNPYRYVDNTVTYAQTLHLAPDEARVIIHEAILNANRSDGWAKGNGVASEGMRRFIGQLLINNLSQIDYVVNRHGGRYPPNDIGHAERYISVGDGFDEVQIRNLAYYAHLDTVEENAIDVDVGIKIFTKLNLSRGLPIPIAIHYRYDPNVPGSRERTVVKARRIYNAIKERFSSLDEQNLLQFRLSVQAQDIGSPIEEVASA
For B1, the binding entry in assay [6] is listed as “binds”.

B2: Hnea CsoS1B (protein, UniProt P45690 1-110)
chain: MATTHGIALGMIETRGLVPAIEAADAMTKAAEVRLVGRSFVGGGYVTVMVRGETGAVNAAVRAGADACERVGDGLVAAHIIARVHSEVEIILPETPEDSDSAWCIANLNS
Consider B2, for which the binding result in assay [5] is listed as “binds”.
